Data source: PubChem BioAssay AID652272 (Drosophila RNAi Screening Center, 2013)
The deposit covers about 21,000 reagents; below is an unselected part of those that have a named target and a result. Of all reagents, 503 (2.4%) are marked active. 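Raw plate light values, not normalised; calls rest on replicate z-scores that were not deposited; hits include reporter decreases as well as increases.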 Entries without a mark were called inactive. Names joined by + are all predicted targets of the reagent. The record does not give: the amount of reagent, the time to read-out.

- Screen: 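Genes whose knock-down decreases or increases Hedgehog reporter output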 (primary screen)
- Cell system: Drosophila clone 8 (Cl8) cells
- Reagent: long dsRNA against Drosophila genes
- Measurement: 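Plate reader light from a firefly reporter under a ptc promoter fragment that responds to Hedgehog, with Renilla light as transfection reference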
- Direction: firefly Hh reporter signal: higher = more ptc reporter light; Renilla reference signal: higher = more Renilla control light
- Call rule: 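Called a hit if the two-replicate mean z-score lies below -2 or above +3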
- Calls: active = hit: reporter lowered or raised; inactive = not a hit

The first 2 entries, ahead of the listing:
| Target gene | PubChem SID | firefly Hh reporter signal, replicate 1 | firefly Hh reporter signal, replicate 2 | Renilla reference signal, replicate 1 | Renilla reference signal, replicate 2 |
| --- | --- | --- | --- | --- | --- |
| CG14073 | SID104189870 | 1.12e5 | – | 3776 | 2258 |
| Caf1-180 | SID104197599 | 75284 | 1.07e5 | 1664 | 2268 |

The list itself, from the start:
| Target gene | PubChem SID | firefly Hh reporter signal, replicate 1 | firefly Hh reporter signal, replicate 2 | Renilla reference signal, replicate 1 | Renilla reference signal, replicate 2 |
| --- | --- | --- | --- | --- | --- |
| CG14073 | SID104189870 | 1.12e5 | – | 3776 | 2258 |
| Caf1-180 | SID104197599 | 75284 | 1.07e5 | 1664 | 2268 |
| MYPT-75D | SID104190535 | 90919 | 56563 | 3898 | 2032 |
| CG6576 | SID104190455 | 65420 | 64747 | 7165 | 4610 |
| smid | SID104191190 | 79584 | 90829 | 8784 | 6074 |
| Aplip1 | SID104187739 | 1.53e5 | 3.68e5 | 4128 | 14496 |
| Aplip1 | SID104188489 | 96647 | 48213 | 3312 | 3686 |
| ppk28 | SID104199711 | 82203 | 2.09e5 | 2419 | 7636 |
| CG15099 | SID104186320 | 99248 | 98131 | 5220 | 4033 |
| Lerp | SID104194542 | 97266 | 85410 | 3622 | 2618 |
| Lerp | SID104194543 | 1.25e5 | 1.41e5 | 4709 | 4320 |
| Lerp | SID104195822 | 1.10e5 | 1.14e5 | 4032 | 3408 |
| Lerp | SID104195823 | 96738 | 1.01e5 | 4012 | 2960 |
| Rcd4 | SID104182389 | 98009 | 67879 | 2731 | 4525 |
| EndoB | SID104187137 | 81607 | 43820 | 2388 | 4103 |
| Arpc2 | SID104181905 | 1.19e5 | 96347 | 4970 | 3370 |
| Sec20 | SID104192087 | 82865 | 1.15e5 | 3005 | 3261 |
| Hakai | SID104181823 | 86295 | 65493 | 3802 | 2994 |
| CG6937 + btn | SID104196709 | 4.48e5 | 88385 | 21810 | 2299 |
| Stt3B | SID104196573 | 4.94e5 | 1.06e5 | 25729 | 3197 |
| Alg9 | SID104194199 | 1.17e5 | 66490 | 4583 | 2236 |
| Rint1 | SID104190802 | 90892 | 51200 | 3744 | 2215 |
| CG5493 + CG5327 | SID104186730 | 1.38e5 | 70957 | 3388 | 5225 |
